# Measured values: patent US12263177B2, “Biologically active ganoderma lucidum compounds and synthesis of anticancer derivatives; ergosterol peroxide probes for cellular localization” (priority 2019, dated 2025)
# Legend:
# HMEC = experiment: Cytotoxicity of EP probes via CTG assay, normal cells; type: cell-based; details: therapeutic index, HMEC EC50 / SUM149 EC50
# MDA-MB-231 [1] = experiment: Washout experiment (intracellular accumulation); type: cell-based, human; details: 1 μM
# MDA-MB-231 [2] = experiment: Co-localization studies with organelle trackers; type: cell-based, human
smiles,measurement,setting,value
CC(C)C(C)C=CC(C)C1CCC2C1(C)CCC1C23C=CC2(CC(=O)CCC12C)OO3 (stereo not drawn) [3a],TI(HMEC/SUM149),HMEC,>3
CC(C)C(C)C=CC(C)C1CCC2C1(C)CCC1C23C=CC2(CC(OC(=O)CCl)CCC12C)OO3 (stereo not drawn) [3c],TI(HMEC/SUM149),HMEC,>4
CC(C)C(C)C=CC(C)C1CCC2C1(C)CCC1C23C=CC2(CC(OC(=O)CN=[N+]=[N-])CCC12C)OO3 (stereo not drawn) [3d],TI(HMEC/SUM149),HMEC,>2
C#CCOC1CCC2(C)C3CCC4(C)C(C(C)C=CC(C)C(C)C)CCC4C34C=CC2(C1)OO4 (stereo not drawn) [3e],TI(HMEC/SUM149),HMEC,>2
CCOP(=O)(COC1CCC2(C)C3CCC4(C)C(C(C)C=CC(C)C(C)C)CCC4C34C=CC2(C1)OO4)OCC (stereo not drawn) [3f],TI(HMEC/SUM149),HMEC,>4
CC(C)C(C)C=CC(C)C1CCC2C1(C)CCC1C23C=CC2(CC(OCP(=O)(O)O)CCC12C)OO3 (stereo not drawn) [3g],TI(HMEC/SUM149),HMEC,>4
CC(C)C(C)C=CC(C)C1CCC2C1(C)CCC1C23C=CC2(CC(OP(=O)([O-])OCC[N+](C)(C)C)CCC12C)OO3 (stereo not drawn) [3h],TI(HMEC/SUM149),HMEC,>4
CC(C)C(C)C=CC(C)C1CCC2C1(C)CCC1C23C=CC2(CC(OC(=O)CCCC(=O)O)CCC12C)OO3 (stereo not drawn) [3i],TI(HMEC/SUM149),HMEC,>4
C#CCCCC(=O)OC1CCC2(C)C3CCC4(C)C(C(C)C=CC(C)C(C)C)CCC4C34C=CC2(C1)OO4 (stereo not drawn) [3j],TI(HMEC/SUM149),HMEC,>4
CC(C)C(C)C=CC(C)C1CCC2C1(C)CCC1C23C=CC2(CC(OC(=O)CCCCC4SCC5NC(=O)NC54)CCC12C)OO3 (stereo not drawn) [3k],TI(HMEC/SUM149),HMEC,>6
CC(C)C(C)C=CC(C)C1CCC2C1(C)CCC1C23C=CC2(CC(OC(=O)Cn4cc(CNC(=O)c5ccc6c(c5)C(=O)OC65c6ccc(N(C)C)cc6Oc6cc(N(C)C)ccc65)nn4)CCC12C)OO3 (stereo not drawn) [3l],TI(HMEC/SUM149),HMEC,>1
same,intracellular accumulation after washout / cell staining,MDA-MB-231 [1],did not accumulate in the cell at all; also recorded: no cell staining was observed
Cc1cc(C)n2c1C=C1C=CC(CCC(=O)OC3CCC4(C)C5CCC6(C)C(C(C)C=CC(C)C(C)C)CCC6C56C=CC4(C3)OO6)=[N+]1[B-]2(F)F (stereo not drawn) [3m],TI(HMEC/SUM149),HMEC,>6
same,intracellular accumulation after washout / cell staining,MDA-MB-231 [1],Fluorescence of compound 3m is observed after washing; also recorded: distributes across the cytosol
same,co-localization with peroxisome,MDA-MB-231 [2]; Ruby-red peroxisome stably transfected cells,no co-localization was observed
same,co-localization with endoplasmic reticulum,"MDA-MB-231 [2]; blue/white ER tracker, consistent in MDA-MB-231 and SUM-149",good co-localization was recorded
same,co-localization with Golgi,MDA-MB-231 [2]; golgi-RFP cells,The same observation
same,co-localization with lysosome,MDA-MB-231 [2]; lysotracker,no co-localization was recorded
same,co-localization with mitochondria,MDA-MB-231 [2]; mitotracker,no overlap was detected
"COC(=O)CCc1ccc2n1[B-](F)(F)[N+]1=C(C)C=C(C)C1=C2 [BodipFl methyl ester, reference compound]",intracellular accumulation after washout / cell staining,MDA-MB-231 [1],no fluorescence of the control compound is observed after washing
"CCCCCOC(=O)Nc1nc(=O)n([C@@H]2O[C@H](C)[C@@H](O)[C@H]2O)cc1F [Capecitabin, reference compound]",TI(HMEC/SUM149),HMEC,>2
"COc1cccc2c1C(=O)c1c(O)c3c(c(O)c1C2=O)C[C@@](O)(C(=O)CO)C[C@@H]3O[C@H]1C[C@H](N)[C@H](O)[C@H](C)O1 [Doxorubicin, reference compound]",TI(HMEC/SUM149),HMEC,>11
"CC(C)[C@@H](C)/C=C/[C@@H](C)[C@H]1CC[C@@H]2[C@]1(C)CC[C@H]1[C@]23C=C[C@]2(C[C@@H](O)CC[C@]12C)OO3 [EP, ergosterol peroxide]",TI(HMEC/SUM149),HMEC,>3
"CC(=O)O[C@H]1C(=O)[C@@]2(C)[C@H]([C@H](OC(=O)c3ccccc3)[C@]3(O)C[C@H](OC(=O)[C@H](O)[C@@H](NC(=O)c4ccccc4)c4ccccc4)C(C)=C1C3(C)C)[C@]1(OC(C)=O)CO[C@@H]1C[C@@H]2O [Taxol, reference compound]",TI(HMEC/SUM149),HMEC,>800

# “Also recorded” adds a separate entry of the source.
